Results: article PMC8209036, “Structural basis for late maturation steps of the human mitoribosomal large subunit” (Nature Communications, 2021)
No constants are given. Whether binding was seen depends on the method and setting. Some results given as binding are weak or reduced against the parent protein; the word gives no strength.

Protein sequences, listed by entry. Tags and fused reporters are not part of them. Residues count along the entry.
UniProt Q96CB9, residues 26-384: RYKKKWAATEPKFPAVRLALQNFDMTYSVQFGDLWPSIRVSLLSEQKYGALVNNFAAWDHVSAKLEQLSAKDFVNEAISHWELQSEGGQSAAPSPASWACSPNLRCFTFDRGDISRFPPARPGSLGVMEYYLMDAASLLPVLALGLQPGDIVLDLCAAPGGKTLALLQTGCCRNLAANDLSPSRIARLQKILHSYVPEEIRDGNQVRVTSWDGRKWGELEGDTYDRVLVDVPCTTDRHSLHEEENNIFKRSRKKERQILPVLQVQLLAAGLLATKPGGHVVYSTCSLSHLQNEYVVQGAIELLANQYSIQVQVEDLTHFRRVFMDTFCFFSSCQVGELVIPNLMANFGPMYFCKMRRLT

How the values were obtained:
[1] = molecular target: rRNA methyltransferase NSUN4 (human (endogenous in HEK293T)) (UniProt Q96CB9); experiment: cryo-EM structure; GTPBP5IP mt-LSU assembly intermediate: native complex from mitochondria of HEK293T cells expressing GTPBP5::FLAG, isolated on anti-FLAG M2 agarose and eluted with 3x FLAG peptide; 3.1 A reconstruction (3.2 A for the mtEF-Tu- and MTG1-containing particles)
[2] = molecular target: rRNA methyltransferase NSUN4 (human (endogenous in HEK293T)) (UniProt Q96CB9); experiment: cryo-EM structure; GTPBP5KO mt-LSU assembly intermediate: native mt-LSU from mitochondria of GTPBP5 knock-out HEK293T cells, sucrose cushion and 15-30% sucrose gradient; 2.6 A reconstruction

binding [1]: binds
binding [2]: binds
B1: mitochondrial transcription termination factor 4 (MTERF4) (protein, UniProt Q7Z6M4 43-381)
chain: LTTASNGGVIEELSCVRSNNYVQEPECRRNLVQCLLEKQGTPVVQGSLELERVMSSLLDMGFSNAHINELLSVRRGASLQQLLDIISEFILLGLNPEPVCVVLKKSPQLLKLPIMQMRKRSSYLQKLGLGEGKLKRVLYCCPEIFTMRQQDINDTVRLLKEKCLFTVQQVTKILHSCPSVLREDLGQLEYKFQYAYFRMGIKHPDIVKSEYLQYSLTKIKQRHIYLERLGRYQTPDKKGQTQIPNPLLKDILRVSEAEFLARTACTSVEEFQVFKKLLAREEEESESSTSDDKRASLDEDEDDDDEEDNDEDDNDEDDDDEDDDEAEDNDEDEDDDEEE
